Assay results taken from PubChem BioAssay AID504467 (National Center for Advancing Translational Sciences (NCATS), 2011).
The whole screen tested about 330,000 compounds, of which about 7,700 (2.3%) were called active. Inconclusive results, whose numbers are uncertain, are shown with a selection of clear calls. The call rests on the fitted dose curve; in most records, active means well fitted inhibition curve with a large enough effect; inconclusive means small, poorly fitted or top-dose-only effect, or effect the other way; inactive means flat fitted curve, though single readings scatter. A potency beside an inconclusive call is a rough fit, not a confirmed value.

Assay: qHTS screen for small molecules that inhibit ELG1-dependent DNA repair in human embryonic kidney (HEK293T) cells expressing luciferase-tagged ELG1; further: nearly all actives have a fitted effect of over 55% in size
Details: HEK293T ELG1-luciferase reporter, luminescence, 16 h, DNA damage induced by 5-fluorouridine; activity change, negative = inhibition: at 46.1 µM (top of the series)
Outline: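 Overnight (16 hr) co-exposure of 2,000 cells/well to 5-fluorouridine and compound at 37 °C preceded detection. Luciferase was quantified via ONE-Glo luminescence; loss of signal denotes inhibition.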
On the % scale 0 is the no-effect control and ±100 the full control effect; potency means the concentration at half of the fitted maximal effect.

| SMILES | Potency | activity change, negative = inhibition |
| --- | --- | --- |
| O=C(CSC(=S)N1CCCCC1)c1ccccc1 | inconclusive: 2.31 µM [activator, partial curve] |  |
| Nc1cc(N)nc(SCc2cccc(F)c2)n1 | inconclusive: 12.6 µM [activator, partial curve] |  |
| Cc1ccc2c(CSc3nnc4ccccn34)cc(=O)oc2c1C | inconclusive: 18.4 µM [activator, single point] |  |
| O=C(N/N=C/C=C/c1ccccc1)c1cc2c(ccc3ccccc32)o1 | inconclusive: 29.1 µM [activator, partial curve, poor fit] |  |
| CCc1sc(C(=O)Nc2ncccc2C)cc1C | inconclusive: 20.6 µM [activator, partial curve] |  |
| O=C(COc1ccc(Cl)cc1)NNC(=S)NCc1ccccc1 | inconclusive: 18.3 µM [inhibitor, single point] |  |
| CCOC(=O)c1c(C)c(-c2ccccc2)n(CC(=O)NCCC(C)C)c1C |  | inactive: 1.18% |
| CCN(CC)S(=O)(=O)c1ccc(/C=C/C(=O)Nc2cccc(F)c2)cc1 | active: 13 µM |  |
| N=C(c1ccc([N+](=O)[O-])cc1)N1CCCCCC1 |  | inactive: -0.882% |
| Cc1[nH]n(-c2ccccc2)c(=O)c1/C=C1/C=c2ccccc2=N1 | inconclusive: 29.1 µM [activator, single point] |  |
| Oc1ccc(-c2cccc(-c3ccc(O)cc3)c2)cc1 | inconclusive: 15.8 µM [activator, partial curve] |  |
| Cc1nn(Cc2ccc(Cl)cc2Cl)c(C)c1NC(=O)c1sc2ccccc2c1Cl |  | inactive: -2.52% |
| COC(=O)c1ccc(Cn2nc(-c3ccc(C)cc3)ccc2=O)cc1 |  | inactive: 3.94% |
| COc1cccc(CCc2nnc(N)s2)c1 |  | inactive: 10.2% |
| O=C(Nc1ccc(C(=O)NCc2ccccc2Cl)cc1)C1=CSCCO1 | inconclusive: 16.4 µM [activator, partial curve] |  |
| COc1ccccc1NS(=O)(=O)c1cccc(NC(=O)Cc2cccs2)c1 |  | inactive: 0.349% |
| O=c1[nH]c(C(F)(F)F)nc2ccc3ccccc3c12 | inconclusive: 6.51 µM [inhibitor, single point] |  |
| CCOc1ccc(CCNC(=O)CSc2nn(-c3ccc(C)c(Cl)c3)c(=S)s2)cc1OCC | inconclusive: 2.91 µM [inhibitor, full curve, poor fit] |  |
| CC(C)(C)NC(=S)NNC(=O)c1ccncc1 |  | inactive: 2.71% |
| Nc1nc(N)c2c(n1)CCCC2 |  | inactive: 0.712% |
| CCn1c(=O)c(=O)[nH]c2cc(C(=O)NC3CCCc4ccccc43)ccc21 (configuration not stated) | inconclusive: 23.1 µM [inhibitor, partial curve, poor fit] |  |
| COc1ccc(N(CC(=O)Nc2cc(Cl)ccc2C)S(=O)(=O)c2c(C)noc2C)cc1 | inconclusive: 6.51 µM [inhibitor, partial curve] |  |
| COc1ccc(OC)c(NC(=O)COC(=O)COc2ccc(Nc3ccccc3)cc2)c1 | inconclusive: 18.3 µM [activator, partial curve, poor fit] |  |
| Cc1cc(NCc2ccccn2)n2nc(C)c(-c3ccccc3)c2n1 | active: 23.1 µM |  |

Reprinted at random: 2 entries already listed, in no set order.

| SMILES | Potency | activity change, negative = inhibition |
| --- | --- | --- |
| COc1ccc(N(CC(=O)Nc2cc(Cl)ccc2C)S(=O)(=O)c2c(C)noc2C)cc1 | inconclusive: 6.51 µM [inhibitor, partial curve] |  |
| Oc1ccc(-c2cccc(-c3ccc(O)cc3)c2)cc1 | inconclusive: 15.8 µM [activator, partial curve] |  |

The listing continues:

| SMILES | Potency | activity change, negative = inhibition |
| --- | --- | --- |
| COc1ccc(N2CCN(C(=O)CSc3ccc(C)cc3)CC2)cc1 |  | inactive: -1.63% |
| O=C(/C=C/c1ccoc1)c1ccccc1O | inconclusive: 20.6 µM [activator, partial curve] |  |
| CCCCCCSc1cc(-c2nc3cc(C)ccn3c2NCCCC)ccc1OC | inconclusive: 3.16 µM [inhibitor, single point] |  |
| COc1ccccc1-n1c(SCc2cc(=O)oc3cc(O)ccc23)nc2ccccc2c1=O | inconclusive: 32.6 µM [inhibitor, single point] |  |
| O=C(COC(=O)CCc1nc2ccccc2s1)Nc1ccc(Cl)cn1 | inconclusive: 29.1 µM [activator, partial curve, poor fit] |  |
| CC(C)Sc1nc(N)nc(-c2cccs2)c1C#N | inconclusive: 18.4 µM [activator, partial curve] |  |
| O=C(NC(=S)NCc1ccco1)c1cccc(Cl)c1 |  | inactive: 14.2% |
| Cc1csc2c(N3CCN(C(=O)Nc4ccc(OC(F)(F)F)cc4)CC3)ncnc12 | inconclusive: 23.1 µM [inhibitor, single point] |  |
| CCc1ccc(-c2cc(C(F)(F)F)n3nc(C(=O)Nc4c(C)nn(Cc5ccccc5Cl)c4C)cc3n2)s1 |  | inactive: -4.75% |
| Fc1ccc(-c2csc(-c3ccc(C4SCCS4)cc3)n2)cc1F | inconclusive: 9.2 µM [activator, partial curve] |  |
| CCOC(=O)N1CCN(C(=O)CN(C)S(=O)(=O)c2ccc(Cl)cc2)CC1 |  | inactive: -0.631% |
| COc1ccc2nc(NCc3cccnc3)sc2c1 | inconclusive: 12.6 µM [activator, partial curve, poor fit] |  |
| COc1ccccc1C(=O)Nc1ccccn1 | inconclusive: 9.2 µM [activator, partial curve] |  |
| CCCN(CCC)CCNC(=O)c1cc2c(=O)n(C)c3ccccc3c2n1C | inconclusive: 14.6 µM [activator, partial curve] |  |
| Cc1nc2cc(NC(=O)c3cccc(S(C)(=O)=O)c3)ccc2o1 | inconclusive: 18.3 µM [activator, partial curve, poor fit] |  |
| N#Cc1nccnc1S(=O)(=O)c1cccs1 | inconclusive: 29.1 µM [inhibitor, single point] |  |
| Cc1ccc(S(=O)(=O)N2CCN(C(=O)c3cc4c(s3)CCCC4)CC2)c(C)c1 | inconclusive: 25.9 µM [inhibitor, single point] |  |
| CCc1ccc(-c2cc(C)no2)cc1S(=O)(=O)Nc1ccccn1 | inconclusive: 23.1 µM [activator, single point] |  |
| Cc1cc(C(=O)CSc2n[nH]c(N)n2)c(C)n1-c1ccccc1 | inconclusive: 10.3 µM [activator, partial curve] |  |
| Cc1nnc(-c2ccc(Oc3ccc(Cl)cc3)c([N+](=O)[O-])c2)o1 |  | inactive: -14.3% |
| OC1(c2ccccc2)CN(c2ccccc2)C2=[N+]1CCS2 (configuration not stated) |  | inactive: 13.3% |
| CNC(=O)c1ccc(Nc2nnc(-c3ccc(C(N)=O)cc3)c3ccccc23)cc1 |  | inactive: 0.918% |
| CCN(CC)C(=O)Oc1ccc2c(c1)O/C(=C\c1ccco1)C2=O | inconclusive: 18.3 µM [activator, partial curve] |  |
| CN(C)S(=O)(=O)c1ccc(C(=O)NCc2nnc(SCC(=O)N3CCCCCC3)o2)cc1 |  | inactive: 1.52% |

| SMILES | Potency | activity change, negative = inhibition |
| --- | --- | --- |
| NC(=O)c1c(NC(=O)c2cccs2)sc2c1CCCCCC2 | inconclusive: 11.6 µM [activator, partial curve] |  |
| O=C(OCC(=O)N1CCN(C(=O)c2ccco2)CC1)c1cc(-c2ccc(F)cc2)nc2ccccc12 | active: 23.1 µM |  |
| Cc1cc(OCc2ccc(C(=O)NN=C3CCCC3)cc2)ccc1Cl | inconclusive: 16.4 µM [activator, partial curve] |  |
| Cc1ccc(S(=O)(=O)N2CCC(C(=O)NCCc3ccccc3)CC2)cc1 | inconclusive: 29.1 µM [activator, single point] |  |
| COC(=O)c1ccc(-c2sc3nc(N4CCOCC4)c4c(c3c2N)CC(C)(C)OC4)o1 | active: 5.17 µM |  |
| Cc1cc(Nc2ccccc2)n(-c2ccccc2)n1 | inconclusive: 18.4 µM [activator, single point] |  |
| O=[N+]([O-])c1ccc(CSc2ccc(S(=O)(=O)N3CCCCC3)cn2)cc1 | inconclusive: 29.1 µM [inhibitor, single point] |  |
| CCOC(=O)N1CCN(C(=O)COc2cc(=O)n(C)c3ccccc23)CC1 | inconclusive: 20.6 µM [activator, single point] |  |
| CCOc1cc(CN2CCN(C(=O)c3cccc4ccccc34)CC2)ccc1OC | active: 14.6 µM |  |
| CC(CCc1ccccc1)NC(=O)CN1C(=O)NC2(CCCCC2C)C1=O (configuration not stated) | inconclusive: 22.4 µM [inhibitor, partial curve, poor fit] |  |
| C[C@H](NC(=O)c1[nH]cnc1C(=O)N[C@H](C)c1ccccc1)c1ccccc1 |  | inactive: 1.76% |
| Cc1cc(NC(=O)CN2C(=O)NC(C)(CC(C)C)C2=O)no1 (configuration not stated) | inconclusive: 8.2 µM [activator, single point] |  |
| O=C(CSc1nnc(Cc2cccs2)n1Cc1ccco1)Nc1ccc(Cl)cc1Cl | inconclusive: 29.1 µM [inhibitor, single point] |  |
| O=C(COc1ccccc1Cl)NC(=O)NC1CCCC1 | inconclusive: 18.4 µM [activator, partial curve] |  |
| COc1ccc(NC(=O)c2ccccc2NC(=O)c2ccco2)c(OC)c1 | inconclusive: 29.1 µM [inhibitor, single point] |  |
| COc1cc(OC)cc(C(=O)Nc2ccc(N3CCN(C(=O)c4cccs4)CC3)cc2)c1 | active: 14.6 µM |  |
| CCn1ccc2cc(OC)ccc2c1=S | inconclusive: 25.9 µM [activator, partial curve] |  |
| Cc1ccc(NC(=O)c2snc3ccc(Cl)cc23)cc1C | inconclusive: 11.6 µM [activator, partial curve] |  |
| CCOC(=O)N1CCN(c2ccccc2OC)CC1 |  | inactive: 20.7% |
| Cc1cc(NC(=O)c2cccs2)ncc1NC(=O)c1cccc(F)c1 | inconclusive: 23.1 µM [activator, partial curve] |  |
| CNS(=O)(=O)c1ccc(NC(=O)c2cnn3c(C(F)F)cc(-c4ccccc4)nc23)cc1 | inconclusive: 6.51 µM [inhibitor, single point] |  |
| CCc1ccc(S(=O)(=O)N2CCCC(N3CCN(c4ccc(OC)cc4)CC3)C2)cc1 (configuration not stated) |  | inactive: -12.1% |
| Cc1cc(Cl)ccc1OCC(=O)OCC(=O)N(CC(C)C)c1c(N)n(Cc2ccccc2)c(=O)[nH]c1=O |  | inactive: -1.6% |
| COc1cc(/C=C/C(=O)O)ccc1OS(=O)(=O)c1ccc(C)cc1 |  | inactive: 5.91% |
